The supplement of paper PMC12067093, “Discovery and optimisation of a covalent ligand for TRIM25 and its application to targeted protein ubiquitination” (Chemical Science, 2025)
This is one part of the list.

By UniProt entry, the sequences of proteins in these tests, tags left out. Where a name states a change or a piece, a line headed by the entry shows the natural chain unless it says otherwise.
UniProt Q96I15: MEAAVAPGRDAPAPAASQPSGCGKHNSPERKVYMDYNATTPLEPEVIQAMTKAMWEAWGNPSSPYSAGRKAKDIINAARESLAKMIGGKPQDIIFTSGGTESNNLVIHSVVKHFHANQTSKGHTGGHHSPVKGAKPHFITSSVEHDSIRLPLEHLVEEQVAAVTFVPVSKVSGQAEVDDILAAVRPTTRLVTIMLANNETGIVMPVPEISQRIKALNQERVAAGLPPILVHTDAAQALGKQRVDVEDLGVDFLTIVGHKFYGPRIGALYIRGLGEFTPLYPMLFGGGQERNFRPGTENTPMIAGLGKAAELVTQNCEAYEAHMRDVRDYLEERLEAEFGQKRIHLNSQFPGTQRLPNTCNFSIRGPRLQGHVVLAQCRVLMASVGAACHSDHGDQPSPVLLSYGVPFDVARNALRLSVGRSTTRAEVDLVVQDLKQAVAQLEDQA
UniProt Q15020: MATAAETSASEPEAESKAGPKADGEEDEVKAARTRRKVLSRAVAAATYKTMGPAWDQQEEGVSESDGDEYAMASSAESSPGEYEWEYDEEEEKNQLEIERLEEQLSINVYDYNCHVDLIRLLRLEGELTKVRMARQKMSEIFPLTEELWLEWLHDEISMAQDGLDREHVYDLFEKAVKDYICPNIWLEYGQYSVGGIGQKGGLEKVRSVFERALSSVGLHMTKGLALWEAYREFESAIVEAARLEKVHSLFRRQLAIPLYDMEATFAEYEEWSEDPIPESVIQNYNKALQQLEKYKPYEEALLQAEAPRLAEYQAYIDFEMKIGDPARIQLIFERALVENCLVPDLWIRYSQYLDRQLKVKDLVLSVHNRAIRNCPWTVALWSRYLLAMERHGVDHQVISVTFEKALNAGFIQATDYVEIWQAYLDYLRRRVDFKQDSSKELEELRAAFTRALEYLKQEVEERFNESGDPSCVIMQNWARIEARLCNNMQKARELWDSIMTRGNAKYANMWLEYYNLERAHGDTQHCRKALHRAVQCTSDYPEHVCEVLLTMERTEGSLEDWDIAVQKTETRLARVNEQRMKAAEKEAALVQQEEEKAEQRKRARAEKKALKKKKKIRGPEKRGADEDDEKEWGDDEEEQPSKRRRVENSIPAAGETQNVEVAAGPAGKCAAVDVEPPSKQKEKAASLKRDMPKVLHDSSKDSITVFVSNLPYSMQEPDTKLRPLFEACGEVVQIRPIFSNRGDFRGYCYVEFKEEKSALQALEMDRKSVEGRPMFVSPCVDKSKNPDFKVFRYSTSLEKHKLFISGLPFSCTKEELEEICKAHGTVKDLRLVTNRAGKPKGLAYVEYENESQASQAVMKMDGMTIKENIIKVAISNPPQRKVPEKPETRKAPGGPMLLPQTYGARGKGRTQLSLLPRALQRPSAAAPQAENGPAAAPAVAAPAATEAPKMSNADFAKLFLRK
UniProt Q99590: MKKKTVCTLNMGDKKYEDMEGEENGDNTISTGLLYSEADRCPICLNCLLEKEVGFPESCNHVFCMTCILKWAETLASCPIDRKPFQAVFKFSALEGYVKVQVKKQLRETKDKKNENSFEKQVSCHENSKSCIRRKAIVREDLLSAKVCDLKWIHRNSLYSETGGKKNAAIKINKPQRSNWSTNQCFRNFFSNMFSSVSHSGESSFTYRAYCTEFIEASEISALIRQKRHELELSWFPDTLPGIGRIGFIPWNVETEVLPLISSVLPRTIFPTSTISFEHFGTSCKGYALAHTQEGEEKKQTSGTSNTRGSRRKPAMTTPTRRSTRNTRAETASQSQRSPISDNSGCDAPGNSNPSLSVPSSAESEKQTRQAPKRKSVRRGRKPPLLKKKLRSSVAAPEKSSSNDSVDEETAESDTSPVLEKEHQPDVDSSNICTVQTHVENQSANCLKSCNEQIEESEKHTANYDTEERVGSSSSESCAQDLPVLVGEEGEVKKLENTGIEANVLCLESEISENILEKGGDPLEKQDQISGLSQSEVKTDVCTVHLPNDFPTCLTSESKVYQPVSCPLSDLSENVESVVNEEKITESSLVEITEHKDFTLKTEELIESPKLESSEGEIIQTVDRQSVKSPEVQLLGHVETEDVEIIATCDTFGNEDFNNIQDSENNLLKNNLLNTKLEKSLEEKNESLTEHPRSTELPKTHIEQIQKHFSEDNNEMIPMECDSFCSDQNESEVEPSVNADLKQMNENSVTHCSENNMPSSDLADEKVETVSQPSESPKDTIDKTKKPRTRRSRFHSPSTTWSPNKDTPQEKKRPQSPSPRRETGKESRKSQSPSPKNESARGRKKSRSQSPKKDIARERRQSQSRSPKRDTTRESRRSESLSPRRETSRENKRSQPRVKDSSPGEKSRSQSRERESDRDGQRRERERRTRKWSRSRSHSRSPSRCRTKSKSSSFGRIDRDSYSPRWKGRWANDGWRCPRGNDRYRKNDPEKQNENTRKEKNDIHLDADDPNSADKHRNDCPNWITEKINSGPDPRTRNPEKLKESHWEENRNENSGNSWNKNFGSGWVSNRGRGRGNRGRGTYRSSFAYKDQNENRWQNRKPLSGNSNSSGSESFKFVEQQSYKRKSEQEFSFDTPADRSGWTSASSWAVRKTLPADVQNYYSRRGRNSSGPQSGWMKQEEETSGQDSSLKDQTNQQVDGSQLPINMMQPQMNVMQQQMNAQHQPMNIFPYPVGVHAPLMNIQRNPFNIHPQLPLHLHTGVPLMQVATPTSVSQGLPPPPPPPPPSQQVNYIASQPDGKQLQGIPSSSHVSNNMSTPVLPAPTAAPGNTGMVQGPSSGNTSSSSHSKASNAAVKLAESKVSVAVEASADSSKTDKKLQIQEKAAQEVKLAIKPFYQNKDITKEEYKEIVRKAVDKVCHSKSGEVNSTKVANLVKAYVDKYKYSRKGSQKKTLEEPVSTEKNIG
UniProt O94855: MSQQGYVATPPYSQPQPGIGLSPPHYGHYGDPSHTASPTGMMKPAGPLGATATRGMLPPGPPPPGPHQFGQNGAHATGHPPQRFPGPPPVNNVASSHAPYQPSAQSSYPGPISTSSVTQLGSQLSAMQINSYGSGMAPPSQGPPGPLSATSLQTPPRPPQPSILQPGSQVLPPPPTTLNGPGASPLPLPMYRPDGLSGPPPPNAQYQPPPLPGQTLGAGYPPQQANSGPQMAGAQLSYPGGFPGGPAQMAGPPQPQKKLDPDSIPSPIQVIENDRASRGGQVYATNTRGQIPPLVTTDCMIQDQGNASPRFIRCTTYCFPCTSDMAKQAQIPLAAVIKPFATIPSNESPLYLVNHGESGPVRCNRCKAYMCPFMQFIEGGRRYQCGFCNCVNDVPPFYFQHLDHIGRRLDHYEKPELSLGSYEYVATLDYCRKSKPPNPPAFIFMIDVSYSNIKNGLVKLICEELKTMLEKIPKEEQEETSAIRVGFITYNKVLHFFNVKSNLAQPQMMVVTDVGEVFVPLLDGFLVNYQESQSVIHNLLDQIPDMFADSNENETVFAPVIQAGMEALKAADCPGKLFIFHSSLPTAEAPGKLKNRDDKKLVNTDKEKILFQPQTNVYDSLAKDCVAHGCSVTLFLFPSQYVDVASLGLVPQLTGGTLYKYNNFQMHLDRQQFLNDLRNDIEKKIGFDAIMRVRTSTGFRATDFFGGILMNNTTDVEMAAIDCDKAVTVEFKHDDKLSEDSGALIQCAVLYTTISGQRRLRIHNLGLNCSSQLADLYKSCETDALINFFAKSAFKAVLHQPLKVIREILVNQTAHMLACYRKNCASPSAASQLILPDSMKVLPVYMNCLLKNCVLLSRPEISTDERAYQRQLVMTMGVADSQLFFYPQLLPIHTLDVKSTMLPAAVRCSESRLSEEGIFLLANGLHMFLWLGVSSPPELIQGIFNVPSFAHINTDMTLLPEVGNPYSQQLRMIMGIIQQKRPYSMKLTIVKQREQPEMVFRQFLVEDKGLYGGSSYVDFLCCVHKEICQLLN
UniProt Q9UBV2: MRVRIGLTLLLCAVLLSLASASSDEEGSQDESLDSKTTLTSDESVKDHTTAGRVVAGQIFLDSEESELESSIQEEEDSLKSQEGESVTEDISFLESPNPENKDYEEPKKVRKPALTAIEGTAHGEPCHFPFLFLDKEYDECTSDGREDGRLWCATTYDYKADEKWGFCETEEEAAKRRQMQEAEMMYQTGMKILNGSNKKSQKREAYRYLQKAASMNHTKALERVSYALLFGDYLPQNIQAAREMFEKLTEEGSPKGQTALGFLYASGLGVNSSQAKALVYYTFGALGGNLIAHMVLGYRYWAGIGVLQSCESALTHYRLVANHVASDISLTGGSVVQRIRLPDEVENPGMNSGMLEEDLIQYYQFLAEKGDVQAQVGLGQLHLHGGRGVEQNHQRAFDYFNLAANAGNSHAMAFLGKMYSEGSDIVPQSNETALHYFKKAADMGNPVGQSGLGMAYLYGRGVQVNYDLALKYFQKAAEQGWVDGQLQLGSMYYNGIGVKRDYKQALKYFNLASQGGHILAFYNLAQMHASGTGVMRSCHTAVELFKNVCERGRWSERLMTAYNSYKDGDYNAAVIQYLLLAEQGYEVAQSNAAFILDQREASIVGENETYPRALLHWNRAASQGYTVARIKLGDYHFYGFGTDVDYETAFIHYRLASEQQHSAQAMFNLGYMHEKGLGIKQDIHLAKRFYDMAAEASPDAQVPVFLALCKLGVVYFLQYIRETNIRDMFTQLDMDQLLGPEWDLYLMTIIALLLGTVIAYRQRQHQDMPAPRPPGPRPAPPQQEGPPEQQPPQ
UniProt Q15437: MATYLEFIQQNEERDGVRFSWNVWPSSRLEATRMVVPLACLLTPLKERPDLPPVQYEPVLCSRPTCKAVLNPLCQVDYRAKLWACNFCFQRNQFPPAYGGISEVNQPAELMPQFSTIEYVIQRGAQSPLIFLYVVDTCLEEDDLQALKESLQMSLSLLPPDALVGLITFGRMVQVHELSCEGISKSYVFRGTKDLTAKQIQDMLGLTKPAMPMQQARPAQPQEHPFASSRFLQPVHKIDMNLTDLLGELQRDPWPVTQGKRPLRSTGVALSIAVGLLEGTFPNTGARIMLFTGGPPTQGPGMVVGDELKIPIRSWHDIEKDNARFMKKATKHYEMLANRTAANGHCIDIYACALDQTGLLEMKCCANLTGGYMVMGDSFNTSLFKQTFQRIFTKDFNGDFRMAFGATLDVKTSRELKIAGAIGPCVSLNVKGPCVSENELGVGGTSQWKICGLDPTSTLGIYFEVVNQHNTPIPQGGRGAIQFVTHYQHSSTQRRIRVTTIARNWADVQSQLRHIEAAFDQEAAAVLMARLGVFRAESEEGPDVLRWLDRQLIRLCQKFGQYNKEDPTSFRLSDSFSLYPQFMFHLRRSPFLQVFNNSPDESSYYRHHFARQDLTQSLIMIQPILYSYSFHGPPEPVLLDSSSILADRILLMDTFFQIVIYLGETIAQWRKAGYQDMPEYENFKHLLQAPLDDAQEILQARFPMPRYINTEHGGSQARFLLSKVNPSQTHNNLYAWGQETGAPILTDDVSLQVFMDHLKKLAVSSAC
UniProt P21912: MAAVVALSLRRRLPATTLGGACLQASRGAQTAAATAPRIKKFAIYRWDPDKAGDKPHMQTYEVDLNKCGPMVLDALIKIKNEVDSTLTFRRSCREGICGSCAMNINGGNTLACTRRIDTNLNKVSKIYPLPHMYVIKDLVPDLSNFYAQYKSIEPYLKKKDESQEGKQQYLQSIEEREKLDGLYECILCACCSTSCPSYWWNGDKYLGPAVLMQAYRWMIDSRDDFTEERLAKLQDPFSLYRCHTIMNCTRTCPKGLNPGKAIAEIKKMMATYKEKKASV
UniProt Q96KG9: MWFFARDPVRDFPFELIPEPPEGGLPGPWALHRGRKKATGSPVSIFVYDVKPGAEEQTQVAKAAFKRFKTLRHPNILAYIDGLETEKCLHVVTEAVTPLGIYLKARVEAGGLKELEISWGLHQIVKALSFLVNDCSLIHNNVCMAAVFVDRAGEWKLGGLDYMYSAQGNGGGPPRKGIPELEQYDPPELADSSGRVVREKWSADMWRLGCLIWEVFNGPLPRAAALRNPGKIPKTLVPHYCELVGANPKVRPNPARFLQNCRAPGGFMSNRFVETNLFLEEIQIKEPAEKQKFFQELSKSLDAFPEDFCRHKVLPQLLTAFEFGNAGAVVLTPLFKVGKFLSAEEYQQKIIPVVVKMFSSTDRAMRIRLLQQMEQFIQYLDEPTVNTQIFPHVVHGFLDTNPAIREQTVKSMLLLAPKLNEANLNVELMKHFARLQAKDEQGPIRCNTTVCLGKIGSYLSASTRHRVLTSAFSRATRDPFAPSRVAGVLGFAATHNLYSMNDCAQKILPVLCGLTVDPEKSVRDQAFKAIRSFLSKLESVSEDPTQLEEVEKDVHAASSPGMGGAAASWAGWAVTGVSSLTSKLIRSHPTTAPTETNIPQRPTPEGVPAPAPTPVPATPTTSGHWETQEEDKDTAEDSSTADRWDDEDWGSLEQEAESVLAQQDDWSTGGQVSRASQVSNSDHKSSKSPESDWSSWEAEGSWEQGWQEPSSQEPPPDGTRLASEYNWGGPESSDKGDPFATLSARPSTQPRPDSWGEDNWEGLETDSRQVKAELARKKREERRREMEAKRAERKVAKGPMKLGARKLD

Compound: Cc1cc(ccc1-c1ccccc1)C(=O)N1CCCN(CC1)C(=O)CCl [compound 10]
Experiment: probe-labelled cysteine peptide fold change vs DMSO (competition) (log2 fold change); higher = less target engagement (more negative = stronger competition)
Conditions: THP-1, incubation time: 4 h
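Further: competitive profiling in live THP-1 cells: cysteine peptides tagged with an iodoacetamide desthiobiotin (IA-DTB) probe, intensity after compound treatment relative to DMSO-treated cells.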

Row | Target | probe-labelled cysteine peptide fold change (10 µM) | probe-labelled cysteine peptide fold change (50 µM)
1 | SEPT2_Q15019_148_VHCCFYFISPFGHGLK (UniProt Q15019) | -0.225 | 0.49
2 | SEC23IP_Q9Y6Y8_678_EKIDMESLLMCTVDDLK (UniProt Q9Y6Y8) | 0.0447 | -0.159
3 | SEC13_P55735_234_DVAWAPSIGLPTSTIASCSQDGR (UniProt P55735) | -0.0557 | 0.00507
4 | SCLY_Q96I15_22_DAPAPAASQPSGCGK (UniProt Q96I15) | -0.196 | -0.596
5 | SDF2L1_Q9HCN8_92_IRGGSEGGCPR (UniProt Q9HCN8) | -0.14 | -0.225
6 | SEPHS1_P49903_71_LGIGMDTCVIPLR (UniProt P49903) | 0.0858 | 0.0715
7 | SEC16A_O15027_1293_YWCDAEYDAYRR (UniProt O15027) | -0.239 | -0.523
8 | SDS_P20132_270_ILVEPACGAALAAVYSHVIQK (UniProt P20132) | 0.201 | 0.177
9 | SENP8_Q96LD8_64_CTSNPAEIAMFLEPLDLPNKR (UniProt Q96LD8) | -0.0924 | -0.139
10 | SART3_Q15020_182_DYICPNIWLEYGQYSVGGIGQK (UniProt Q15020) | 0.208 | 0.164
11 | SART3_Q15020_812_LFISGLPFSCTK (UniProt Q15020) | 0.0425 | 0.284
12 | SCAF11_Q99590_450_SCNEQIEESEK (UniProt Q99590) | -0.364 | -0.315
13 | SCYL3_Q8IZE3_71_FLSCTVEADGIHLVTER (UniProt Q8IZE3) | 0.00139 | -0.0177
14 | SEC24C_P53992_881_DTLITQCAQILACYR (UniProt P53992) | 0.0249 | 0.0715
15 | SELENOF_O60613_73_GCCQEEAQFETK (UniProt O60613) | -0.0984 | 0.258
16 | SEC62_Q99442_55_AVDCLLDSK (UniProt Q99442) | -0.0244 | -0.177
17 | SEC24C_P53992_809_HDDRLNEESGALLQCALLYTSCAGQR (UniProt P53992) | 0.118 | 0.186
18 | SCAF8_Q9UPN6_1170_DRDDRDFDFCR (UniProt Q9UPN6) | -0.37 | -0.343
19 | SEC24D_O94855_371_AYMCPFMQFIEGGR (UniProt O94855) | 0.0414 | -0.448
20 | SENP6_Q9GZR1_972_QPCILLMDSLR (UniProt Q9GZR1) | -0.104 | -0.0157
21 | SEPT2_Q15019_148_VHCCFYFISPFGHGLKPLDVAFMK (UniProt Q15019) | -0.00578 | 0.145
22 | SEH1L_Q96EE3_30_MATCSSDQSVK (UniProt Q96EE3) | -0.0509 | -0.0324
23 | SAR1A_Q9NR31_178_ELNARPMEVFMCSVLK (UniProt Q9NR31) | -0.0933 | -0.364
24 | SEC23A_Q15436_88_LWACNFCYQR (UniProt Q15436) | -0.0355 | -0.152
25 | SCLT1_Q96NL6_408_LTEELSALQMECAEK (UniProt Q96NL6) | 0.0149 | 0.0266
26 | SDF2L1_Q9HCN8_92_GGSEGGCPR (UniProt Q9HCN8) | -0.15 | 0.269

Reformatted with tabs: entries from further up.
Row	Target	probe-labelled cysteine peptide fold change (10 µM)	probe-labelled cysteine peptide fold change (50 µM)
18	SCAF8_Q9UPN6_1170_DRDDRDFDFCR (UniProt Q9UPN6)	-0.37	-0.343
19	SEC24D_O94855_371_AYMCPFMQFIEGGR (UniProt O94855)	0.0414	-0.448
20	SENP6_Q9GZR1_972_QPCILLMDSLR (UniProt Q9GZR1)	-0.104	-0.0157

(next part)

Row | Target | probe-labelled cysteine peptide fold change (10 µM) | probe-labelled cysteine peptide fold change (50 µM)
27 | SEC31A_O94979_216_MHCSGLAWHPDVATQMVLASEDDRLPVIQMWDLR (UniProt O94979) | 0.137 | 0.0273
28 | SEMA4D_Q92854_512_HGTCEDCVLAR (UniProt Q92854) | -0.113 | -0.827
29 | SEC24D_O94855_388+390_YQCGFCNCVNDVPPFYFQHLDHIGR (UniProt O94855) | -0.163 | -0.303
30 | SEL1L_Q9UBV2_141_EYDECTSDGREDGR (UniProt Q9UBV2) | 0.0618 | 0.0245
31 | SEPT11_Q9NVA2_46_STSQGFCFNILCVGETGIGK (UniProt Q9NVA2) | 0.212 | -0.163
32 | SEC23B_Q15437_61+66_ERPDLPPVQYEPVLCSRPTCK (UniProt Q15437) | -0.112 | -0.579
33 | SBF1_O95248_1197_FPVVCWR (UniProt O95248) | -0.139 | -0.0383
34 | SAMSN1_Q9NSI8_165_LDDDGPYSGPFCGR (UniProt Q9NSI8) | 0.301 | 0.292
35 | SBNO1_A3KN83_605_YLCIASK (UniProt A3KN83) | -0.77 | 0.41
36 | SART3_Q15020_527_AHGDTQHCR (UniProt Q15020) | -0.00802 | 0.112
37 | SEC24C_P53992_493_RVDAYDRPELSLGSYEFLATVDYCK (UniProt P53992) | -0.0958 | 0.311
38 | SDHA_P31040_536_VGSVLQEGCGK (UniProt P31040) | -0.00734 | 0.121
39 | SEC24C_P53992_448_FQCCFCSCINDVPPQYFQHLDHTGKR (UniProt P53992) | 0.109 | 0.0173
40 | SEC24B_O95487_562_CTLTNIPQTQALLNK (UniProt O95487) | 0.254 | 0.239
41 | SCLY_Q96I15_316_AAELVTQNCEAYEAHMR (UniProt Q96I15) | 0.128 | 0.00299
42 | SATB1_Q01826_173_IQLHSCPK (UniProt Q01826) | -0.0552 | -0.188
43 | SCCPDH_Q8NBX0_238_WPISYCR (UniProt Q8NBX0) | -0.242 | -1.65
44 | SDHB_P21912_243+249_CHTIMNCTR (UniProt P21912) | -0.163 | -0.496
45 | SBF1_O95248_601_CLAQELHLHVQQNR (UniProt O95248) | 0.168 | 0.0912
46 | SART3_Q15020_341_ALVENCLVPDLWIR (UniProt Q15020) | 0.0881 | 0.145
47 | SCAF11_Q99590_446_EHQPDVDSSNICTVQTHVENQSANCLK (UniProt Q99590) | -0.284 | -0.21
48 | SCAF11_Q99590_553_TDVCTVHLPNDFPTCLTSESK (UniProt Q99590) | -0.12 | -0.092
49 | SEC16A_O15027_1293_YWCDAEYDAYR (UniProt O15027) | -0.357 | -0.54
50 | SCAPER_Q9BY12_336_DSLHSCDHPLAEK (UniProt Q9BY12) | -0.263 | -0.404
51 | SEC23B_Q15437_40_MVVPLACLLTPLK (UniProt Q15437) | 0.0483 | -0.105
52 | SCYL1_Q96KG9_451_CNTTVCLGK (UniProt Q96KG9) | -0.262 | -0.242

Row | Target | probe-labelled cysteine peptide fold change (10 µM) | probe-labelled cysteine peptide fold change (50 µM)
53 | SAMM50_Q9Y512_65_TKDDIIICEIGDVFK (UniProt Q9Y512) | 0.0115 | 0.203
54 | SAP130_Q9H0E3_951_VHLCAAQLLQLTNLEHDVYER (UniProt Q9H0E3) | 0.0945 | 0.344
55 | SCRN3_Q0VDG4_143_YGQGGNCTEGR (UniProt Q0VDG4) | -0.0586 | 0.126
56 | SEPHS1_P49903_317_ACGNMFGLMHGTCPETSGGLLICLPR (UniProt P49903) | -0.00273 | -0.259
57 | SEC24C_P53992_809+816_HDDRLNEESGALLQCALLYTSCAGQR (UniProt P53992) | 0.15 | -0.152
58 | SCML2_Q9UQR0_458_FLENFCHSLQCDNLLSSQPFSSSR (UniProt Q9UQR0) | 0.00126 | -0.195
59 | SDCBP_O00560_166_FGDQVLQINGENCAGWSSDK (UniProt O00560) | -0.113 | -0.0879
60 | SDHA_P31040_266_TYFSCTSAHTSTGDGTAMITR (UniProt P31040) | 0.135 | -0.103
61 | SEC24D_O94855_1021+1022_GLYGGSSYVDFLCCVHK (UniProt O94855) | -0.000618 | -0.939
62 | SEC14L1_Q92503_614_DYSMVESPLICK (UniProt Q92503) | -0.418 | -0.526
63 | SEMA4A_Q9H3S1_339_SSAVCAFSLLDIER (UniProt Q9H3S1) | -0.137 | -0.579
64 | SASS6_Q6UVJ0_310_ENSTLDVECHEK (UniProt Q6UVJ0) | 0.155 | 0.0919
65 | SEL1L_Q9UBV2_141_EYDECTSDGR (UniProt Q9UBV2) | -0.263 | 0.593
66 | SATB2_Q9UPW6_246_VERENLSDYCVLGQRPMHLPNMNQLASLGK (UniProt Q9UPW6) | -0.223 | -0.659
67 | SDHB_P21912_249_CHTIMNCTR (UniProt P21912) | 0.00394 | 0.104
68 | SART3_Q15020_114_NQLEIERLEEQLSINVYDYNCHVDLIR (UniProt Q15020) | 0.0864 | -0.000636
69 | SATB1_Q01826_78_KGTMLPVFCVVEHYENAIEYDCK (UniProt Q01826) | 0.178 | 0.501
70 | SCFD2_Q8WU76_236_EECFAVGSLSQVIAADLANYAPAK (UniProt Q8WU76) | -0.116 | 0.159
71 | SEC13_P55735_153_INNAHTIGCNAVSWAPAVVPGSLIDHPSGQK (UniProt P55735) | 0.205 | 0.559
72 | SCYL1_Q96KG9_503_VAGVLGFAATHNLYSMNDCAQK (UniProt Q96KG9) | -0.194 | -0.333
73 | SCRIB_Q14160_1082_DATHQEAVSALLRPCLELSLLVR (UniProt Q14160) | 0.188 | -0.0996
74 | SEPT5_Q99719_278_LYPWGIVEVENQAHCDFVK (UniProt Q99719) | 0.194 | 0.135
75 | SDK1_Q7Z5N4_1538_GEWQTYSSSISHEATACVVDR (UniProt Q7Z5N4) | 0.0986 | -0.0249
76 | SELENOO_Q9BVL4_629_LLETPYHCEAGAATDAEATEADGADGR (UniProt Q9BVL4) | -0.157 | -0.5
77 | SCFD2_Q8WU76_507_ALAQVFCEESGLSPLLQK (UniProt Q8WU76) | 0.126 | 0.0573
